Article PMC5719072
These are yes or no findings as the source states them, for the method shown. For some of these results: Binding seen in cells or lysates may run through a third protein. Some binding calls cover weakened binding; strength is not graded here. For some of these results: Sequences can lack the tags named with a protein. One block for each substance: values may come before it.

By UniProt entry, the sequences of proteins in these tests, tags left out.
UniProt P35222: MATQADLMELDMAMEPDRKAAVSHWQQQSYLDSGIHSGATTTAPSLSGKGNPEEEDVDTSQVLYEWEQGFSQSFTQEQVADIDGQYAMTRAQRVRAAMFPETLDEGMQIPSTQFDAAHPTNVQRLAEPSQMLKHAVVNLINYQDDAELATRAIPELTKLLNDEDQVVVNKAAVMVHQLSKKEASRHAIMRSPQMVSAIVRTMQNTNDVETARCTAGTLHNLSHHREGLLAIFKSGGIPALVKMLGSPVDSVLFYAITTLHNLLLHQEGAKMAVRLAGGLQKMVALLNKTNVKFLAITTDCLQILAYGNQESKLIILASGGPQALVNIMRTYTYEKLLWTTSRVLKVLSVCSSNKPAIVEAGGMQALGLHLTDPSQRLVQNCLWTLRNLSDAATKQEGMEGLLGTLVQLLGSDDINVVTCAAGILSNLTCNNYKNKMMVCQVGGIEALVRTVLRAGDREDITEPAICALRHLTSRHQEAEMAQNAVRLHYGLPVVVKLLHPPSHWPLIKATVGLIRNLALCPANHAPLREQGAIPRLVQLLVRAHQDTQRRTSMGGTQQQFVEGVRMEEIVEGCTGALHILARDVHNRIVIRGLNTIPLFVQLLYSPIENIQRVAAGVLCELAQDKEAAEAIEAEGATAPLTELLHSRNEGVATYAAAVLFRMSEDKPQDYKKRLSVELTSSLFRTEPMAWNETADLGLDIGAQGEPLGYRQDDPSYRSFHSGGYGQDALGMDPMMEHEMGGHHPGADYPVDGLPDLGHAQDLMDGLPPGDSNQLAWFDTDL
UniProt P47929: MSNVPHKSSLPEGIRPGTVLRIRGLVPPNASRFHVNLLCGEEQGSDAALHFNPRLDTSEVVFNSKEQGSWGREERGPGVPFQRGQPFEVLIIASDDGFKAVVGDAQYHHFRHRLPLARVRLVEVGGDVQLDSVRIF

Columns and labels:
[1] = molecular target: β-catenin (human (endogenous in HaCaT)) (UniProt P35222); assay: co-IP; immunoprecipitation of E-cadherin, α-catenin or β-catenin from HaCaT whole cell extracts, blot for galectin-7 (supplementary Figs S2a-c)
[2] = molecular target: β-catenin (human (endogenous in HaCaT)) (UniProt P35222); assay: proximity ligation; Duolink In situ Red kit on HaCaT cells, endogenous proteins; for galectin-7/E-cadherin also after lactose washes
[3] = molecular target: T1, extracellular domain of mouse E-cadherin fused to human IgG1 Fc fragment (mouse) (UniProt P09803); assay: pull-down; in vitro binding assay: purified proteins mixed in 100 μl lysis buffer overnight at 4 °C, E-cad-Fc captured on protein-A-Sepharose 3 h at 4 °C, washes with PBS - 0.5% NP40 and PBS; both purified
T1 sequence: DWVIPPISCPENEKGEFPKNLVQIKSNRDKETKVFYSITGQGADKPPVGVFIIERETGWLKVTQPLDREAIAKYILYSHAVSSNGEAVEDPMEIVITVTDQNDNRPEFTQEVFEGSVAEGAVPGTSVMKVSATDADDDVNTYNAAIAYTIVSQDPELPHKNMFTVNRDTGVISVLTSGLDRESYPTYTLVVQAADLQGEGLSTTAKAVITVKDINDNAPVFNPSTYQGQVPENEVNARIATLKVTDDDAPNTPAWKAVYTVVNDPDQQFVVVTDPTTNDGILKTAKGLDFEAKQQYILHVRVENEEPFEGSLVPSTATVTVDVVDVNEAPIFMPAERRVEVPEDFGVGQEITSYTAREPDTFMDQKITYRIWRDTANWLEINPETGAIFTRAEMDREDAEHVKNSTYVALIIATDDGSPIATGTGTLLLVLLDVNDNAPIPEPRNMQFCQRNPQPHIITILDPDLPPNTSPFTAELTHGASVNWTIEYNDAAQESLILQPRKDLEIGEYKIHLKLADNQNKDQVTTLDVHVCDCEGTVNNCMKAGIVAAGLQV

[4] = molecular target: galectin-7 (human (endogenous in HaCaT)) (UniProt P47929); assay: co-IP; immunoprecipitation of galectin-7 from whole cell extracts of confluent HaCaT cells, blots for E-cadherin, α-catenin and β-catenin; also with 150 mM β-lactose, 300 mM galactose, 300 mM glucose, 15 mM LacNAc or 15 mM sucrose, and after deglycosylation of the lysate in non-denaturing …

binding [1]: binds
binding [2]: binds
Substance: galectin-7 (from UniProt P47929 1-136)

binding [3]: binds
Substance: recombinant human galectin-7 (from UniProt P47929 1-136)

binding [4]: binds
Substance: β-catenin (from UniProt P35222 1-781)
